Results reported in paper PMC4177747, “Derlin-1 Regulates Mutant VCP-Linked Pathogenesis and Endoplasmic Reticulum Stress-Induced Apoptosis” (PLoS Genetics, 2014).
These are yes or no findings as the source states them, for the method shown. Binding seen in cells or lysates may run through a third protein. Some entries that bind do so weakly or less than the wild type.

Protein sequences, listed by entry. Tags and fused reporters are not part of them. Lines headed by an entry give the natural chain unless they say otherwise; changes in a name come on top.
UniProt Q7KN62: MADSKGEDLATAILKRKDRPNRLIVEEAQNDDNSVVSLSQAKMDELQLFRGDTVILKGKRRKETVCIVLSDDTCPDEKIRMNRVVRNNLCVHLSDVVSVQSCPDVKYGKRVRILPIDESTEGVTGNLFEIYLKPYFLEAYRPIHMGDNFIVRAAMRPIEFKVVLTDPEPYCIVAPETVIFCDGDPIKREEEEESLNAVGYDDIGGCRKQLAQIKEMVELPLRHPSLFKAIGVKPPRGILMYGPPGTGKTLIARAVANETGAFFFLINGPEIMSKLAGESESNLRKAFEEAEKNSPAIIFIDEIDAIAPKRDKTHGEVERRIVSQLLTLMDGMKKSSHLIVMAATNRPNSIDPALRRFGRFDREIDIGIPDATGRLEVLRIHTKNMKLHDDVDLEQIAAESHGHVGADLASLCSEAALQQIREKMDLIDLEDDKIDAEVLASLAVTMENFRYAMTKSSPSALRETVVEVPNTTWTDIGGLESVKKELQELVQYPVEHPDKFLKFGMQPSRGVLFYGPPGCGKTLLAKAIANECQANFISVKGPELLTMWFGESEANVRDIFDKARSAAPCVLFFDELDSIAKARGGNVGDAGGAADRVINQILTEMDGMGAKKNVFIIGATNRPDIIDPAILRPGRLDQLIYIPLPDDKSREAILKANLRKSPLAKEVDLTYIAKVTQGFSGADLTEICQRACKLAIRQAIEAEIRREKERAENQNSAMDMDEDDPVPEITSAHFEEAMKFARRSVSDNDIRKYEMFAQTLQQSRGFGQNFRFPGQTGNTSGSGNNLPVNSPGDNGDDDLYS

What was measured:
[1] = target: T1, Derlin-1 (wild-type, expressed from the UAS-derlin-1 transgene in hs>derlin-1 flies) (Drosophila) (UniProt Q9VQ57); test: co-IP; anti-Derlin-1 antiserum on protein A-agarose; whole fly lysates of heat-shocked hs-GAL4; tub-GAL80^ts flies; 4°C overnight; lysis buffer 0.5% Triton X-100, 10 mM Tris-HCl, 5 mM EDTA, 100 mM NaCl, pH 7.5; blot with anti-VCP and anti-Derlin-1
T1 sequence: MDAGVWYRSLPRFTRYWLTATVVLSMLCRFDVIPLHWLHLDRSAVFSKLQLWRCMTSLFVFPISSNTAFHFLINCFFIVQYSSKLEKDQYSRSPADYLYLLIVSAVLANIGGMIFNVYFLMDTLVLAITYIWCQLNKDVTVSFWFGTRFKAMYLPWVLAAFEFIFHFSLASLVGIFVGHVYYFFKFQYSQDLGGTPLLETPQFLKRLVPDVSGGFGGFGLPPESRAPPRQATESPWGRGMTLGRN

[2] = target: T2, Derlin-1 (endogenous, fly) (Drosophila (endogenous in flies)) (UniProt Q9VQ57); test: as above
T2 sequence: T1 sequence

[3] = target: TER94 (endogenous, the fly VCP homolog) (Drosophila (endogenous in flies)) (UniProt Q7KN62); test: co-IP; sequential IP: first round with anti-VCP on protein A-agarose (4 hours, 4°C), unbound supernatant then with anti-Derlin-1; lysates of flies fed 24 µM tunicamycin for 2, 4 and 6 days and untreated

TER94 (endogenous, the fly VCP homolog) (from UniProt Q7KN62 1-801)
binding [1]: binds

TER94^A229E (pathogenic TER94 mutant, expressed from the UAS-TER94^A229E transgene) (from UniProt Q7KN62 1-801)
binding [2]: binds

B1: Derlin-1 (endogenous, fly) (natural protein, Drosophila (endogenous in flies), UniProt Q9VQ57 1-245, looked up)
chain: T1 sequence
notes: Derlin-1, Drosophila, endogenous protein of about 27 kD (predicted 28.25 kD); also called endogenous Derlin-1; source: endogenous, whole fly lysate
binding [3]: binds
